Paper PMC7760923
Results are given in words; binding and its absence hold for the method and conditions named. A result given as binding can be weak or reduced; the word gives no strength.

Protein sequences, listed by entry. Tags and fused reporters are not part of them. Lines headed by an entry give the natural chain unless they say otherwise; changes in a name come on top. Residues count along the entry.
UniProt P02769, residues 25-607: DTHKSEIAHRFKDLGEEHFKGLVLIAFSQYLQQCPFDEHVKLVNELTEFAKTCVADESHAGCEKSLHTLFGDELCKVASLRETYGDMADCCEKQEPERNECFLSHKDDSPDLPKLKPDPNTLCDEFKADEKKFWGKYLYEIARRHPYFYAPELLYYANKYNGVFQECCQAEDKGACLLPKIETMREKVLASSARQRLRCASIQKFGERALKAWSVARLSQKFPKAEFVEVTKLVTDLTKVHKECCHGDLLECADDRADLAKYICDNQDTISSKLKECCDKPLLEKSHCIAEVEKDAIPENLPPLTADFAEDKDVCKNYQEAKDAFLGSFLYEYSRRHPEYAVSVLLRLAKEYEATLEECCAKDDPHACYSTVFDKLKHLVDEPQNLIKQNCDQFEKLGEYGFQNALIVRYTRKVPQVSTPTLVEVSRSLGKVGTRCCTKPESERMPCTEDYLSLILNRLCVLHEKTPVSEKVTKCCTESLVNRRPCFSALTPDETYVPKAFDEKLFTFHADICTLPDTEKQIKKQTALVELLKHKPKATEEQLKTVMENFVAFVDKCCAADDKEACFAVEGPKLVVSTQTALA
UniProt P02768, residues 25-609: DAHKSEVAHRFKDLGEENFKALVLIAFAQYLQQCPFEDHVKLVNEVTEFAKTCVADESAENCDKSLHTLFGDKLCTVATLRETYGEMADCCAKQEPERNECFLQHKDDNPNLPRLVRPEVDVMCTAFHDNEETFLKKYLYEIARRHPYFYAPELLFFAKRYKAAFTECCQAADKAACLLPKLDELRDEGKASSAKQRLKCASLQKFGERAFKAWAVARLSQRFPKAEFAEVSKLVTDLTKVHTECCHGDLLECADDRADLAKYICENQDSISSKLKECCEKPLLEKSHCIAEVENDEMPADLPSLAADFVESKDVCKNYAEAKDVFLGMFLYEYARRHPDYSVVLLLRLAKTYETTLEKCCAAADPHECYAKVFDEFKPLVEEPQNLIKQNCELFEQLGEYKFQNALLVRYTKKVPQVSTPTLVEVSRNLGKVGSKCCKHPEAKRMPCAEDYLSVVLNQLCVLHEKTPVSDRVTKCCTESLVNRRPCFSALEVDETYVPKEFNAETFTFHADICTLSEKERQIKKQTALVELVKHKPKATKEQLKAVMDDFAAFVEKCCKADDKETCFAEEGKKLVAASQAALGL
UniProt P12643: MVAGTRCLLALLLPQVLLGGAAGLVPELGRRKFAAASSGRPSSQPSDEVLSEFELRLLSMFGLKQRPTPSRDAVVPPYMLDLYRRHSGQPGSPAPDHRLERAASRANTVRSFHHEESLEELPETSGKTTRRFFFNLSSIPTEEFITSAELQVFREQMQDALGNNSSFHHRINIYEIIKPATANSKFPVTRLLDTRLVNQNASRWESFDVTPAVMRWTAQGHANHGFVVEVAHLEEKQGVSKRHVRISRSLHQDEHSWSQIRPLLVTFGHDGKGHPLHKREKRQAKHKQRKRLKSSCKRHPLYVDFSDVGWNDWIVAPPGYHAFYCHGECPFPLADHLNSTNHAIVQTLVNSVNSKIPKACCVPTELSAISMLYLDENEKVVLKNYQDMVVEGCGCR

Legend:
[1] = target: bovine serum albumin (BSA) (bovine) (UniProt P02769); assay: native gel or EMSA; cathodic native PAGE at pH 7.6, BMP-2 alone or mixed with albumin, silver stain; both purified
[2] = target: bovine serum albumin (BSA) (bovine) (UniProt P02769); assay: native gel or EMSA; 2D blue native/SDS-PAGE (non-reducing second dimension), BMP-2 mixed with 30 ug BSA, silver stain; both purified
[3] = target: human serum albumin (HSA) (human) (UniProt P02768); assay: AF4/MALS (asymmetric flow field-flow fractionation with multi-angle light scattering); mixture of 0.20 mg/mL BMP-2 and 1.15 mg/mL HSA (in MES) injected into PBS pH 7.4; MALS/dRI; both purified

Measured: binding

E. coli-derived recombinant human bone morphogenetic protein 2 (rhBMP-2) (from UniProt P12643) (ligand)
binds: all assays above
